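Methionyl-tRNA synthetase (putative), Leishmania donovani (UniProt E9BF75). Primary screen of methionyl-tRNA synthetase; the read-out is not stated. The test concentration is not given. Values are per cent inhibition. Size under these conditions: about 68,000 compounds, about 24 of them at 50% or above in at least one test.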

By UniProt entry, the sequences of proteins in these tests, tags left out.
UniProt E9BF75, entry or part of it: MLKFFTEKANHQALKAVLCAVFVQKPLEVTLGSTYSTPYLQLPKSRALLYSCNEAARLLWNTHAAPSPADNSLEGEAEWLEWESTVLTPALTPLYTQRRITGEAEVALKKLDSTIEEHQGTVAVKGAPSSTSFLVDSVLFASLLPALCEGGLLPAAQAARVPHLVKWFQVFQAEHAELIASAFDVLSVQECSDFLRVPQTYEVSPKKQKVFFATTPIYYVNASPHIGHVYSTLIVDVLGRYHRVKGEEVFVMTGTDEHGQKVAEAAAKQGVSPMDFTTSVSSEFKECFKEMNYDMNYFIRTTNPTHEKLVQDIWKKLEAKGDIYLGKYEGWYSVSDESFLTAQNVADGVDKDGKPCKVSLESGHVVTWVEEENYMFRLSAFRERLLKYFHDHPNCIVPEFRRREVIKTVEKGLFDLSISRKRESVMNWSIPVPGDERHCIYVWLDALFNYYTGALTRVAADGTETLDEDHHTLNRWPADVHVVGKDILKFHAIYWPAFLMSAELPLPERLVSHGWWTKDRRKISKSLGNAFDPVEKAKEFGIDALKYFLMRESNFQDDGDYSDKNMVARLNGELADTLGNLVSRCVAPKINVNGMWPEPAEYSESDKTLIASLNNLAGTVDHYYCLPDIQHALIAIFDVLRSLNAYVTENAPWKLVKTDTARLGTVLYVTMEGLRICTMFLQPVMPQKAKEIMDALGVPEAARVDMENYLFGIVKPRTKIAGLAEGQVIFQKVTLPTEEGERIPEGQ

Results are percentages, as filed. The record does not define 0% and 100%; most values in the screen are far below 50% and negative numbers occur (in some assays of this library far below -100). Compounds were drawn at random from those tested, without regard to their results.

{"compound": "COCCOCCSc1nnc(Cc2ccccc2F)o1", "inhibition": 8.303}
{"compound": "O=C(C1=CCCC1)N1CCO[C@H]2[C@@H](Oc3ccccn3)CC[C@@H]21", "inhibition": 19.86}
{"compound": "Cc1cc(C)nc(Nc2cccc(C3CCCN(CCO)C3)n2)n1", "stereo": "stereo not drawn", "inhibition": 15.25}
{"compound": "CNC(=O)C(C)NC(=O)c1ccc(Oc2cccnc2)cc1", "stereo": "stereo not drawn", "inhibition": 11.5}
{"compound": "CCOc1cc(N2CCN(C(=O)c3ccc(OC)cc3)CC2)nc(C)n1", "inhibition": 3.623}
{"compound": "CCc1c(C(=O)O)nnn1-c1cccc(C)c1C", "inhibition": 8.115}
{"compound": "CC(Nc1ccc(C(F)(F)F)cc1C#N)c1cccc(S(N)(=O)=O)c1", "stereo": "stereo not drawn", "inhibition": 3.714}
{"compound": "COCC(=O)N1CCN(C(C)C(=O)NC(C)C)CC1", "stereo": "stereo not drawn", "inhibition": -4.735}
{"compound": "c1cnnc(N2CCCC(NCc3ccncc3)C2)c1", "stereo": "stereo not drawn", "inhibition": 5.842}
{"compound": "Cc1nc(O)c2nnn(C[C@H]3CCCN3C(=O)c3cccs3)c2n1", "inhibition": 6.25}
{"compound": "CN(C)C(=O)CN1CCCCC1c1nc(N)ncc1-c1cccc(F)c1", "stereo": "stereo not drawn", "inhibition": 3.136}
{"compound": "CC(C)[C@H]1CN(Cc2nccn2C)C[C@@H]1NC(=O)COCC(N)=O", "inhibition": 4.336}
{"compound": "Cc1ccccc1C(C)(C)CNC(=O)CN(C)c1cnccn1", "inhibition": 10.14}
{"compound": "Cc1cc(-c2cnc(NCc3ccc4c(c3)OCO4)nc2C(C)C)on1", "inhibition": 14.58}
{"compound": "COc1cc(N2C[C@@H]3COC[C@@H](Cc4nc(C)no4)[C@@H]3C2)ncn1", "inhibition": 14.66}
{"compound": "Cc1cc(C)c(S(=O)(=O)Nc2cccc3c2OCCO3)cc1C(=O)O", "inhibition": 13.77}
{"compound": "Nc1cc2c(nn1)CCN(C(=O)c1ccc(Oc3cccnc3)cc1)C2", "inhibition": 19.27}
{"compound": "O=C(NCCc1nncn1C1CC1)C1(c2ccccc2)CCC1", "inhibition": 4.712}
{"compound": "N#Cc1ccc(CN(CC(N)=O)Cc2cccc(F)c2)cc1", "inhibition": 11.45}
{"compound": "O=C(c1cccs1)N1CCC2(CC1)CCN(S(=O)(=O)C1CC1)CC2", "inhibition": 11.14}
{"compound": "CN(C)S(=O)(=O)NCC1OCCc2cn(CC3CCOCC3)nc21", "stereo": "stereo not drawn", "inhibition": 10.95}
{"compound": "CNC(=O)c1nc(Cn2ncc3ccccc3c2=O)no1", "inhibition": -0.5013}
{"compound": "O=C(c1nc(Cc2c[nH]c3ccccc23)no1)N1CCCCC1", "inhibition": 4.974}
{"compound": "CC(C)(O)CN1CCC(=O)N(Cc2ccco2)Cc2cc(F)ccc21", "inhibition": -5.135}
{"compound": "CCOCCCNC(=O)c1cccn1Cc1cccnc1", "inhibition": 7.617}
{"compound": "O=C(NCc1nnc2n1CCC2)NCC1(c2cccc(F)c2)CC1", "inhibition": 7.285}
{"compound": "CSc1ccc(NC(=O)Nc2ccc3c(c2)N(S(C)(=O)=O)CC3)cc1", "inhibition": 5.882}
{"compound": "CC(C)Cc1nc(CNCc2cccc(N3CCCC3=O)c2)no1", "inhibition": 11.54}
{"compound": "CN(Cc1nncn1-c1cccc(C(F)(F)F)c1)S(C)(=O)=O", "inhibition": 1.875}
{"compound": "O=C(C[C@@H]1COC[C@H]2CN(Cc3ccc(F)cc3)C[C@@H]12)N1CCCCO1", "inhibition": 12.86}
{"compound": "CCS(=O)(=O)N1C[C@@H](C(=O)NC(C)C)[C@@]2(Cc3ccccc3C(=O)N2)C1", "inhibition": 16.56}
{"compound": "CCc1ccc(C(=O)N2CCC(N(C)C(=O)OC(C)(C)C)C2)o1", "stereo": "stereo not drawn", "inhibition": 7.125}
{"compound": "Cc1nnc(NCC(c2ccco2)N(C)C)c(C#N)c1C", "stereo": "stereo not drawn", "inhibition": 16.87}
{"compound": "CCOCCN1CCN(CC2(O)CCCCC2)CC1", "inhibition": 11.08}
{"compound": "Cn1cnnc1C1CCCN(C(=O)c2cc3ccccc3[nH]2)C1", "stereo": "stereo not drawn", "inhibition": 19.89}
{"compound": "O=C(NCC1CCS(=O)(=O)C1)c1cccc(CN2CCCC2)c1", "stereo": "stereo not drawn", "inhibition": 11.63}
{"compound": "COc1ccc2c(ccn2CC(=O)NC[C@@H]2CCCN3CCCC[C@H]23)c1", "inhibition": 12.66}
{"compound": "Cc1noc(C)c1-c1cnc(CC2CCN(C(=O)c3cc[nH]n3)C2)cn1", "stereo": "stereo not drawn", "inhibition": 10.62}
{"compound": "CNc1ncc(CN(C)C(=O)CCc2[nH]nc3c2CCCC3)cn1", "inhibition": 18.54}
{"compound": "CN(C)c1ccc(C(=O)N2CCCN(C3CCCCC3)CC2)cn1", "inhibition": 16.07}
{"compound": "Cc1nc(CN2CCC3(CCN(c4cnn(C)c4)C3=O)C2)cs1", "stereo": "stereo not drawn", "inhibition": 10.68}

3 of the entries, repeated:

Compound,inhibition
CCOCCCNC(=O)c1cccn1Cc1cccnc1,7.617%
COc1cc(N2C[C@@H]3COC[C@@H](Cc4nc(C)no4)[C@@H]3C2)ncn1,14.66%
CN(C)S(=O)(=O)NCC1OCCc2cn(CC3CCOCC3)nc21 (stereo not drawn),10.95%

Source: ChEMBL document CHEMBL3988442, “University of Dundee, Small-Polar-MMV Screening Library” (2021).